# Experimental data: PubChem BioAssay AID597 (National Center for Advancing Translational Sciences (NCATS), 2007)
# “And” between values parts separate entries of the source, which are not always exact repeats. Equal values may be shown once. About 60 (0.09%) of roughly 68,000 compounds were called active. The shares of active, inactive and inconclusive entries below differ from those in the screen. Calls come from the whole dose curve; as a rule, active = well fitted curve in the direction sought with a large enough effect; inconclusive = small, poorly fitted or top-dose-only effect; inactive = flat fitted curve, though single readings scatter. Potencies beside an inconclusive call are fits to weak or partial responses and may not hold up. A structure can be active in one record and inactive in another.
# Assay: qHTS Assay for Epigenetic Modulators; for GFP derepression (activation): % of control where 0% means no effect
# Settings: mouse C127i GFP locus derepression, cytometry, 30 h; series mostly up to 46.1 µM; GFP derepression (activation): at the top concentration
# Outline: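 Murine C127i mammary cells carrying a silenced, stably integrated CMV-driven GFP reporter were treated with compound for 30 hours at 37 C. After PBS washes, GFP-positive cells were counted by laser-scanning microplate cytometry.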
Structure (SMILES),Potency,GFP derepression (activation)
O=C(OCc1nnc(-c2ccccc2)o1)c1cn(-c2ccccc2)nc1-c1ccccc1,inconclusive: 5.01 µM [single point],
CCOC(=O)c1sc(C(=O)OCC)c(OCCO)c1OCCO,inconclusive: 3.98 µM [single point],
C=CCSc1nc2c(c(=O)[nH]c(=O)n2C)n1C(C)C,,inactive: 0%
CCc1ccccc1NS(=O)(=O)c1cc(C)ccc1OC,inconclusive: 25.1 µM [single point],
CCOC(=O)CCSc1nc(C)cc(C(F)(F)F)c1C#N,inconclusive: 25.1 µM [single point],
CC1=C(/C=C/C(C)=C/C=C/C(C)=C/C(=O)O)C(C)(C)CCC1,active: 10 µM,
CC(C)[C@H](NC(=O)OC(C)(C)C)c1nnc(S(=O)(=O)Cc2c(F)cccc2Cl)o1,inconclusive: 3.98 µM [single point],
NS(=O)(=O)c1ccc(CCNC(=O)Nc2ccc(Cl)cc2)cc1,inconclusive: 31.6 µM [single point],
Nc1ccc2ncccc2c1N,inconclusive: 3.98 µM [single point],
CC1=CC(C)(C)Nc2ccc(OC(=O)c3cccnc3)cc21,inconclusive: 5.01 µM [single point],
COc1cc2oc(-c3ccccc3)cc(=O)c2cc1OC,,inactive: -4.6% [at 9.22 µM]
CCN(Cc1nc2ccccc2c(=O)[nH]1)Cc1nc2cc(OC)c(OC)cc2c(=O)[nH]1,inconclusive: 31.6 µM [single point],
CNc1oc(-c2ccc(Cl)cc2)nc1C#N,,inactive: 0% [at 20.6 µM]
CC(C)(C)NC(=O)C(c1ccncc1)N(C(=O)c1csnn1)C1CC1 (configuration not stated),,inactive: -2.3%
CCN(CC)c1cccc(OC2=NS(=O)(=O)c3ccccc32)c1,active: 3.16 µM,
O=C(O)C1CCCCC1C(=O)NCCc1ccncc1 (configuration not stated),inconclusive: 5.01 µM [single point],
COC(=O)/C(=C1/Oc2cc(C)oc(=O)c2S1)C(F)(F)F,active: 10 µM,
Fc1ccc(Cn2nnnc2C(c2cccs2)N2CCCCCC2)cc1 (configuration not stated),,inactive: 1.3%
O=C1C(C2=C(O)c3ccccc3C2=O)=Nc2ccccc21,inconclusive: 12.6 µM [partial curve],
O=c1cnnc(SCCc2ccccc2)[nH]1,inconclusive: 31.6 µM [single point],
COc1ccccc1NC(=O)Nc1nnc(C(C)C)s1,inconclusive: 5.01 µM [single point],

# Part of the list above, bar-delimited.
Structure (SMILES) | Potency | GFP derepression (activation)
O=C(OCc1nnc(-c2ccccc2)o1)c1cn(-c2ccccc2)nc1-c1ccccc1 | inconclusive: 5.01 µM [single point] | 
CCN(Cc1nc2ccccc2c(=O)[nH]1)Cc1nc2cc(OC)c(OC)cc2c(=O)[nH]1 | inconclusive: 31.6 µM [single point] | 

# (listing goes on)

Structure (SMILES),Potency,GFP derepression (activation)
CCn1c(SCC(=O)Nc2ccccc2N2CCOCC2)nnc1-c1ccccc1,,inactive: -2.1%
O=C(NCC(=O)N(Cc1ccc(F)cc1)C(C(=O)NC1CCCC1)c1ccco1)c1ccco1 (configuration not stated),,inactive: 8.3%
Cn1c(=O)c(=O)n(C)c2cc(S(=O)(=O)N3CCCCCC3)ccc21,inconclusive: 20 µM [single point],
Cc1c(C(=O)c2no[n+]([O-])c2C(=O)c2cnn(C)c2C)cnn1C,inconclusive: 5.01 µM [single point],
CC(C)NC(=O)c1cc2cc(Br)ccc2oc1=O,inconclusive: 3.98 µM [single point],
O=C(O)CCC1COc2ccccc2O1 (configuration not stated),inconclusive: 3.98 µM [single point],
Cc1ccc(S(=O)(=O)NC2OC(=O)C(Cl)=C2Cl)cc1 (configuration not stated),inconclusive: 31.6 µM [single point],
COCc1cc(=O)[nH]c(Nc2nc3ccc(C)cc3o2)n1,inconclusive: 12.6 µM [single point],
CCOC(=O)Cc1csc(SCn2nnc3ccccc3c2=O)n1,,inactive: 0%
N#CC1=C(N)N2C(=C(C#N)C1c1ccccc1)Sc1ccccc12 (configuration not stated),inconclusive: 12.6 µM [single point],
COC(=O)c1c(C)[nH]c(C)c1C(=O)c1ccccc1Cc1ccccc1,inconclusive: 5.01 µM [single point],
CC(C)C(=O)N1CCc2cc(-c3csc(N)n3)ccc21,inconclusive: 5.01 µM [single point],
O=c1sc2ccccc2n1COc1ccccc1,inconclusive: 31.6 µM [single point],
Cc1cc(C)c(C)c(OCCOCCN2CCOCC2)c1,inconclusive: 5.01 µM [single point],
O=C(c1cc(-c2ccco2)nn1-c1cccc(Cl)c1)N1CCCCC1,inconclusive: 31.6 µM [single point],
CN1CCN(c2ccnc(-c3ccoc3)n2)CC1,,inactive: -2.9% [at 9.22 µM]
Oc1ccc(COCc2ccccc2)c2cccnc12,active: 3.16 µM,
O=C(O)CCC(=O)N1CCc2cc(S(=O)(=O)N3CCCCC3)ccc21,inconclusive: 5.01 µM [single point],
Nc1c2c(nc3ccccc13)CCCC2,inactive,
CCN(CC)C(=S)SSC(=S)N(CC)CC,active: 1 µM,
COc1ccc(CCn2c(=N)c(C(=O)N3CCN(C)CC3)cc3c(=O)n4ccccc4nc32)cc1,,inactive: -2.1%

# Reprinted from the listing (3 entries):
Structure (SMILES),Potency,GFP derepression (activation)
Cc1ccc(S(=O)(=O)NC2OC(=O)C(Cl)=C2Cl)cc1 (configuration not stated),inconclusive: 31.6 µM [single point],
COCc1cc(=O)[nH]c(Nc2nc3ccc(C)cc3o2)n1,inconclusive: 12.6 µM [single point],
CCOC(=O)Cc1csc(SCn2nnc3ccccc3c2=O)n1,,inactive: 0%

# Carrying on:

Structure (SMILES),Potency,GFP derepression (activation)
Cc1ccc(Nc2cc(-n3nc(C)cc3C)ncn2)c(C)c1,inconclusive: 31.6 µM [single point],
CCNc1ncc2nc(-c3cc(F)cc(F)c3)c(=O)n(-c3ccccc3)c2n1,inconclusive: 5.01 µM [single point],
N#C/C(=C\NC(=S)c1ccncc1)c1nc2ccccc2s1,inconclusive: 5.01 µM [single point],
CCC(=O)Nc1cc2nn(-c3ccc(OC)cc3)nc2cc1C,,inactive: 1.3%
Cn1cccc1C(=O)Nc1nc(-c2ccccn2)cs1,inconclusive: 25.1 µM [single point],
O=c1c2c3nc4ccccc4nc3n(Cc3ccccc3)c2ncn1Cc1ccco1,inconclusive: 31.6 µM [single point],
Cc1ccc(CNc2ccc3c(c2)OCO3)c(C)c1,inconclusive: 15.8 µM [single point],
S=C(S)N1CCCC1,active: 12.6 µM and active: 631 nM,
Nc1nonc1-c1nc2ccccc2n1Cc1ccc(Cl)cc1,,inactive: -1.8%
C=CCn1c(SCC(=O)N2CCOCC2)nc2scc(-c3ccco3)c2c1=O,inconclusive: 20 µM [single point],
CN(C)CCCn1c(N)c(C#N)c2nc(C#N)c(C#N)nc21,inconclusive: 31.6 µM [single point],
Cc1n[nH]c(C)c1N1C(=O)c2cccc3cc(Br)cc(c23)C1=O,,inactive: -1.6%
Oc1c(CN2CCCCC2)cc(Br)c2cccnc12,active: 3.16 µM,
CN1CCN(c2ccc(NC(=O)COc3ccccc3Cl)cc2)CC1,,inactive: 0.1%
COc1ccc(OCC(O)Cn2c(=N)n(Cc3ccccc3)c3ccccc32)cc1 (configuration not stated),,inactive: 0.6%
COc1cccc(Nc2ncc3nc(-c4cccs4)c(=O)n(-c4ccccc4)c3n2)c1,active: 3.98 µM,
c1coc(CNc2c3c(nc4ccccc24)CCC3)c1,inconclusive: 25.1 µM [single point],
Cc1nc2sccn2c1P(c1c(C)nc2sccn12)c1c(C)nc2sccn12,,inactive: 5.4%
COc1cccc(Cn2c(=O)c(-c3ccccc3)nc3cncnc32)c1,,inactive: 2.7% [at 9.22 µM]
O=C1CC(Sc2nnc(-c3ccccc3O)o2)C(=O)N1c1ccccc1 (configuration not stated),inconclusive: 5.01 µM [single point],
COc1nc(-c2ccccc2)ccc1-c1noc(-c2ccccc2F)n1,,inactive: 2.1%

Structure (SMILES),Potency,GFP derepression (activation)
COc1ccc(OC)c2[nH]c(=O)c(CCNC(=O)c3ccc(S(=O)(=O)N(C)C)cc3)cc12,inconclusive: 5.01 µM [single point],
O=C(Nc1cccc(F)c1)N1CCC2(CC1)CCN(C(=O)c1cnccn1)CC2,inconclusive: 1.26 µM [single point],
Cn1cc(C(=O)c2ccc(Cl)cc2)cc1-c1nc2ccccc2n1C,,inactive: -2.1%
Nc1c(C(=O)NC2CCCC2)sc2nc(-c3cccs3)ccc12,inconclusive: 31.6 µM [single point],
CCOC(=O)C1CCCN(C(=O)CC(C)c2ccccc2)C1 (configuration not stated),inconclusive: 31.6 µM [single point],
Cc1coc(NC(=O)CSc2nc(-c3ccncc3)cc(C(F)(F)F)c2C#N)n1,active: 10 µM,
CCn1c(SCC(=O)Nc2ccc(C(=O)OC)cc2)nnc1-c1cccs1,inconclusive: 5.01 µM [single point],
COCCN1CSC(=S)N(Cc2ccco2)C1,inconclusive: 25.1 µM [single point],
Clc1ccc(OCc2nc(-c3ccccn3)n[nH]2)cc1,inconclusive: 31.6 µM [single point],
CCNc1ncc2nc(-c3cccs3)c(=O)n(-c3ccc(OC)cc3)c2n1,inconclusive: 5.01 µM [single point],
CC(=O)c1sc2nc(-c3cccs3)cc(C(F)(F)F)c2c1N,inconclusive: 31.6 µM [single point],
COc1ccc(-c2nnc3sc(-c4ccco4)nn23)cc1OC,inconclusive: 20 µM [single point],
CC(C)=CCc1c2c(c3occ(-c4ccc(O)c(O)c4)c(=O)c3c1O)C=CC(C)(C)O2,inconclusive: 3.16 µM [single point],
Cc1cc(NCCCN2CCOCC2)n2ncc(-c3ccc(Cl)cc3)c2n1,,inactive: -1.6%
Cc1ccc(Cl)cc1N1CCN(C(=O)CCS(=O)(=O)c2cccc3nonc23)CC1,,inactive: 0%
Oc1c(CN2CCN(c3ccccc3)CC2)cc(Br)c2cccnc12,inconclusive: 3.98 µM [single point],
COc1cccc2sc(Nc3nc(C)c(C(C)=O)s3)nc12,inconclusive: 25.1 µM [single point],
Cn1c(=O)cc(OCCCC(=O)Nc2ccccn2)c2ccccc21,inconclusive: 5.01 µM [single point],
COC(=O)CSc1nc2ccc(NC(=O)CSc3nnnn3Cc3ccccc3)cc2s1,inconclusive: 25.1 µM [single point],
